According to US20030083294:
The exact form of at least one protein or probe is not confirmed.

Chains of the proteins cited; added tags and fusions are not shown. Chains listed by the source or under a name are the forms on record and can include a tag or linker.
coagulation factor IXa (FIXa) (Homo sapiens), one chain, as listed by the source, chain 1 of 2: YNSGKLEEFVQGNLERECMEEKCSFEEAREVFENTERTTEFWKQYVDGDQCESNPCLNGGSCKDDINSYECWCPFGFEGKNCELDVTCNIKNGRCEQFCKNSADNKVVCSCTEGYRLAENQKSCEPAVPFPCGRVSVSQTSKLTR

The sequences below were run on coagulation factor IXa (FIXa) (Homo sapiens) (assay: binding assay). Conditions: 2'-F pyrimidines; range for family of 16 aptamers; minimal sequence shown; physiologic salt, 37 C.
“UGGGCCAUAACCACUUUGGUGAACCCA [FIXa aptamer (FIG. 7, SEQ 12)]”: binds. “GGGACCAUACGCACAUUGCUGAAUCCC [FIXa aptamer (FIG. 7, SEQ 7)]”: binds. “GGGGACUAUACCGGCAAUCGUGCAUCCCC [FIXa aptamer (FIG. 7, SEQ 3)]”: binds. “GGGAUGGGCUAUAUACACGCUGGUGAUCCCAUCUC [FIXa aptamer (FIG. 7, SEQ 9)]”: binds. “UGGGCACUAUACGCAUCUUGCUGCCUG [FIXa aptamer (FIG. 7, SEQ 5)]”: binds. “UGGGACCAUAACGACUACUCGUGAAUCCCA [FIXa aptamer (FIG. 7, SEQ 4)]”: binds. “UGGGACUAUAUUCGGAAUCUGGACUCCCA [FIXa aptamer (FIG. 7, SEQ 8)]”: binds. “GGGCGCCAUACGCACAUUGCUGCAUCGCCU [FIXa aptamer (FIG. 7, SEQ 13)]”: binds. “GGAUGGGCGAUAACCAACAUGGUGAUCCCAUUC [FIXa aptamer (FIG. 7, SEQ 10)]”: binds. “UGGGUAAUAACUGUAUGGUGAACCCA [FIXa aptamer (FIG. 7, SEQ 16)]”: binds. “GGGUGAUAACCACUCUGGUGAACCC [FIXa aptamer (FIG. 7, SEQ 17)]”: binds. “UGGGCCAUACGUGGACGACUGCACCCG [FIXa aptamer (FIG. 7, SEQ 11)]”: binds. “GGGGACUAUACGUGAACGACUGCAUCCAC [FIXa aptamer (FIG. 7, SEQ 15)]”: binds. “GGGACCAUAACUCUAACGGGUGAAUCCC [FIXa aptamer (FIG. 7, SEQ 14)]”: binds. “UGGGCGAUAUACACAUUGGUGAUCCCA [FIXa aptamer (FIG. 7, SEQ 6)]”: binds.
